Results reported in patent US11197885B2, “Collagen enhancing agent made from low acyl gellan gum, methods of making and methods of using the same” (The University of Toledo, priority 2015, dated 2021).
At least one structure is not confirmed: it was looked up by name or label, or the drawing left a doubt.

Experiments:
[1] = test system: pCREB in mouse cortical neurons; test: nuclear pCREB in midi-GAGR-treated mouse cortical neurons pre-treated with signaling inhibitors; assay type: cell-based; settings: inhibitor 6 h (SU5402 4 μM, staurosporine 3 nM, U0126 10 μM, LY294002 20 μM, KN-62 10 μM, PF-573228 1 μM), then 1 μM midi-GAGR 48 h
Procedure: To analyze the effect of polysaccharides on neurite outgrowth, primary mouse cortical neurons were treated with vehicle (H2O) or 1 μM of dextran, alginate, or midi-GAGR, 0.01 μM of HA-GAGR, or 0.1 μM of LA-GAGR for 2 days prior to immunocytochemistry using anti-α-tubulin antibody and secondary Alexa488nm antibody. An etched grid coverslip containing 200 numbered boxes was used to select neurons objectively for image acquisition and analysis. A total of 24 boxes were randomly selected per treatment group. All the neurons having total neurite length longer than 4 times of the diameter of neuron cell body were chosen for image analysis. The total length of the neurites of each neuron was measured using Metamorph and used to calculate average total neurite length. […] The intensity of the staining of nuclear pCREB was measured using Metamorph and used to calculate average intensity. In addition, the phosphorylation of CREB in the cytosols of mouse cortical neurons treated with polysaccharides were detected by immunoblotting. […] The protein bands on blots recognized by anti-pCREB (Santa Cruz Biotechnologies) and anti-CREB antibodies were detected on Amersham Hyperfilm™ ECL films (GE Healthcare Life Science) using SuperSignal® West Pico Chemiluminescent Substrate (Thermo Scientific). […]

[2] = test system: rat embryonic cortical neurons exposed to 25 μM 4-HNE; test: neuritic atrophy caused by 4-HNE in cortical neurons; assay type: cell-based; settings: pre-treatment 2 days (1 μM; ascorbate 100 μM), then 25 μM 4-HNE 1 day
Procedure: Rat embryonic cortical neurons were treated with mock (FIG. 11C), 1 μM HA-GAGR (high acyl gellan gum), 1 μM dextran, 100 μM ascorbate, or 1 μM midi-GAGR (FIG. 13A) for 2 days and then with 25 μM 4-hydroxynonenal (4-HNE), a lipid peroxide, for 1 day. After fixation, neurons were immunostained with anti-synaptophysin antibody (green) and rhodamine-phalloidin (actin: red). Scholl ring analysis was performed.

| SMILES | effect of inhibitor pre-treatment on average intensity of pCREB in midi-GAGR-treated neurons [1] | neurites in the presence of 4-HNE (neuritic atrophy) [2] |
| --- | --- | --- |
| O=c1cc(N2CCOCC2)oc2c(-c3ccccc3)cccc12 [LY294002] | decreased slightly but still statistically significantly | – |
| O=C1O[C@H]([C@@H](O)CO)C(O)=C1O [ascorbate] | – | lost neuritis |
